According to PubChem BioAssay (Tox21):
Where “and” joins values, the source holds several entries; their conditions need not be identical. Identical values can stand only once. For part of these data: The hits were mostly taken out for another list; the other results follow. Results filed as inconclusive are left out. This is a selection; strong and weak results do not stand in their true shares. Where a structure was tested more than once in an assay, its records may differ in their call. Calls of active or inactive are those of the source. Unless noted, the call rests on the fitted dose curve; in most records, active means well fitted curve in the direction sought with a large enough effect in the repeat runs; inconclusive means weak or mixed curves; inactive means no such curve, though single readings can be large; an effect the other way counts as inactive or inconclusive.

Amino acid sequences for entries named in this document (tags omitted). A change or cut given only in a name is not applied to a line headed by its entry.
UniProt Q14994: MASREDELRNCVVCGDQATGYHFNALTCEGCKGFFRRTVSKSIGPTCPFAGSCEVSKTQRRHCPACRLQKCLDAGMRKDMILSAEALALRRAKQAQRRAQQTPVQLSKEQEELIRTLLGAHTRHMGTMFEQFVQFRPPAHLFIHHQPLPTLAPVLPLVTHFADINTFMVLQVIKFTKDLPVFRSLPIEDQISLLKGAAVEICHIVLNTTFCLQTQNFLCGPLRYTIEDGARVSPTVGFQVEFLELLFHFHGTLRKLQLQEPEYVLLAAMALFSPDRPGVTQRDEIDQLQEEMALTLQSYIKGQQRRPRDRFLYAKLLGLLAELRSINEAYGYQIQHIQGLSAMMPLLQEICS

Key:
[1] = qHTS assay to identify small molecule agonists of the constitutive androstane receptor (CAR) signaling pathway - cell viability counter screen (AID 1224836); conditions: HepG2-CYP2B6-hCAR viability, CellTiter-Fluor, 23 h, PK11195 added to every well; further: nearly all actives have a fitted effect of over 45% in size
Summary of the method: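 Cell viability multiplexed with the CAR agonist screen: CellTiter-Fluor fluorescence after 23 hr at 37 C. HepG2-CYP2B6-hCAR cells got compounds at 15 concentrations with PK11195 at 0.75 uM final.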

[2] = qHTS assay to identify small molecule antagonists of the constitutive androstane receptor (CAR) signaling pathway - cell viability counter screen (AID 1224837); conditions: HepG2-CYP2B6-hCAR viability, CellTiter-Fluor, 23 h, co-treated with 50 nM CITCO; further: nearly all actives have a fitted effect of over 45% in size
Summary of the method: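 HepG2 cells stably carrying hCAR and CYP2B6-2.2kb reporter, stimulated with 50 nM CITCO and compounds at 15 concentrations for 23 h at 37 C. Viability measured by CellTiter-Fluor fluorescence.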

[3] = biological target: Nuclear receptor subfamily 1 group I member 3 (Homo sapiens) (UniProt Q14994); assay: qHTS assay to identify small molecule agonists of the constitutive androstane receptor (CAR) signaling pathway (AID 1224839); conditions: HepG2 hCAR CYP2B6-luciferase, agonist mode, 24 h; at 92.4 µM (top of the series);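 further: HepG2 cells stably carrying human CAR and a CYP2B6 luciferase reporter; nearly all actives have a fitted effect of over 15% in size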
Summary of the method: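 Luminescent ONE-Glo read-out after 24 hr, 37 C exposure of double-stable HepG2-CYP2B6-hCAR reporter cells to a 15-point compound series, in the presence of 0.75 uM PK11195 (final).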

[4] = qHTS assay to identify small molecule agonists of the hypoxia (HIF-1) signaling pathway - cell viability counter screen (AID 1224844; calls by dose curve; further: nearly all actives have a fitted effect of over 50% in size); conditions: HRE-bla ME-180 viability, CellTiter-Glo luminescence, 17 h
Summary of the method: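 HRE-bla ME-180 cells, 2,000/well in 0.5% dialyzed FBS medium, treated 17 h at 37C with compounds. Viability read in the same wells as the bla reporter, by CellTiter-Glo luminescence after 30 min at room temperature.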

[5] = qHTS assay to identify small molecule agonists of H2AX - cell viability counter screen (AID 1224847; calls by dose curve; further: nearly all actives have a fitted effect of over 30% in size; further: potency means the concentration at half of the fitted maximal effect;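 on activity change, negative = cytotoxicity: wild-type CHO-K1 cells; top concentration of the series differs between compounds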)
Summary of the method: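 Counter-screen for viability: CellTiter-Glo ATP luminescence read after 3 h compound treatment (15-point titration, 0.76% DMSO final) of CHO-K1 cells at 37C, with 30 min room-temperature reagent incubation.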

[6] = qHTS RealTime-Glo MT Cell Viability Assay in HepG2 cells - 24 hour (AID 1224867); conditions: RealTime-Glo luminescence; further: nearly all actives have a fitted effect of over 50% in size
Summary of the method: (§1)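 Tox21 10K library screened in qHTS format on HepG2 cells carrying RealTime-Glo reagents. Compounds were added after a 5 h preincubation, and the luminescent signal from continuous culture was measured repeatedly during 40 h treatment.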

[7] = qHTS RealTime-Glo MT Cell Viability Assay in HEK293 cells - 32 hour (AID 1224868); conditions: RealTime-Glo luminescence; further: top concentration of the series differs between compounds; nearly all actives have a fitted effect of over 50% in size
Summary of the method: (§2)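 Luminescence generated by NanoLuc from substrate produced by living HEK293 cells served as the viability signal. Each value reflects the reading at its stated time point during continuous 40 h compound exposure at 37 C.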

[8] = qHTS RealTime-Glo MT Cell Viability Assay in HepG2 cells - 40 hour (AID 1224870); conditions: RealTime-Glo luminescence; further: nearly all actives have a fitted effect of over 50% in size
Summary of the method: (§3)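 Real-time viability: cells seeded at 600 per well together with NanoLuc and cell-permeant prosubstrate, compounds added after 5 h incubation. Luminescence tracked at 0, 8, 16, 24, 32 and 40 h of exposure.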

[9] = qHTS RealTime-Glo MT Cell Viability Assay in HEK293 cells - 16 hour (AID 1224872); conditions: RealTime-Glo luminescence
Summary of the method: as §2

[10] = qHTS RealTime-Glo MT Cell Viability Assay in HepG2 cells - 8 hour (AID 1224873); conditions: RealTime-Glo luminescence; further: nearly all actives have a fitted effect of over 55% in size
Summary of the method: as §3

[11] = qHTS RealTime-Glo MT Cell Viability Assay in HepG2 cells - 32 hour (AID 1224877); conditions: RealTime-Glo luminescence; further: nearly all actives have a fitted effect of over 55% in size
Summary of the method: as §1

[12] = qHTS RealTime-Glo MT Cell Viability Assay in HepG2 cells - 16 hour (AID 1224885); conditions: RealTime-Glo luminescence; further: nearly all actives have a fitted effect of over 50% in size
Summary of the method: as §1

[13] = qHTS RealTime-Glo MT Cell Viability Assay in HEK293 cells - 24 hour (AID 1224886); conditions: RealTime-Glo luminescence
Summary of the method: as §2

[14] = qHTS RealTime-Glo MT Cell Viability Assay in HEK293 cells - 8 hour (AID 1224887); conditions: RealTime-Glo luminescence
Summary of the method: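 600 cells/well were plated with the nonlytic NanoLuc/prosubstrate reagent, pre-incubated 5 h, then given 23 nL of compound in DMSO. Incubation at 37 C for 40 h, with luminescence from viable-cell-reduced substrate read repeatedly from 0 h.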

[15] = qHTS RealTime-Glo MT Cell Viability Assay in HepG2 cells - 0 hour (AID 1224889); conditions: RealTime-Glo luminescence; further: nearly all actives have a fitted effect of over 50% in size
Summary of the method: as §1

[16] = qHTS assay to identify small molecule antagonists of the estrogen receptor alpha (ER-alpha) signaling pathway using the BG1 cell line in the presence of 0.1 nM 17-beta-estradiol - cell viability counter screen (AID 1259241); conditions: VM7Luc4E2 (BG1) viability, CellTiter-Fluor protease, 22 h, 0.1 nM estradiol agonist added; further: nearly all actives have a fitted effect of over 40% in size
Summary of the method: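 Cytotoxicity counter-screen: live-cell protease activity measured by fluorescence (30 min reagent step) in the same wells. Cells were VM7Luc4E2 with endogenous ER-alpha and ERE-driven luciferase, treated 22 hr at 37C alongside 0.1 nM 17beta-estradiol final.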

[17] = qHTS assay to identify small molecule antagonists of the androgen receptor (AR) signaling pathway using the MDA cell line in the presence of 0.5 nM R1881 - cell viability counter screen (AID 1259242); conditions: MDA-kb2 viability, CellTiter-Fluor protease fluorescence, 16 h; further: nearly all actives have a fitted effect of over 45% in size
Summary of the method: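 MDA-kb2 cells (MMTV-luciferase, AR/GR responsive) were treated with compounds plus 0.5 nM R1881 (final) for 16 hr at 37C, 0% CO2. Viability was then read in the same wells as live-cell protease fluorescence (CellTiter-Fluor, 30 min).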
On the % scale 0 is the no-effect control and ±100 the full control effect.

O=[N+]([O-])c1ccccc1Cl
inactive: viability change, negative = cytotoxic ([1]; at 92.4 µM (top of the series)) -1.56% | activity change, negative = cytotoxicity ([2]; at 92.4 µM (top of the series)) 1.88% | activation [3] 0.239% | activity change, negative = cytotoxicity ([4]; at 76.8 µM (top of the series)) -8.7% | Potency [5] | activity change, negative = cytotoxicity ([6]; at 76.8 µM (top of the series)) -1% | activity change, negative = cytotoxic ([7]; at 76.8 µM (top of the series)) 4.1% | activity change, negative = cytotoxic ([8]; at 76.8 µM (top of the series)) -2.83% | activity change, negative = cytotoxicity ([9]; at 76.8 µM (top of the series)) 2.5% | viability change, negative = cytotoxic ([10]; at 76.8 µM (top of the series)) 1.32% | activity change, negative = cytotoxic ([11]; at 76.8 µM (top of the series)) -2.64% | activity change, negative = cytotoxic ([12]; at 76.8 µM (top of the series)) 0.0577% | activity change, negative = cytotoxicity ([13]; at 76.8 µM (top of the series)) 0.758% | activity change, negative = cytotoxicity ([14]; at 76.8 µM (top of the series)) 0.185% | activity change, negative = cytotoxicity ([15]; at 76.8 µM (top of the series)) 14.1% | activity change, negative = cytotoxicity ([16]; at 92.4 µM (top of the series)) 14.1% | viability change, negative = cytotoxic ([17]; at 92.4 µM (top of the series)) -1.74%

CC(C)(C)c1ccc(O)cc1
inactive: viability change, negative = cytotoxic ([1]; at 42.5 µM (top of the series)) 9.94% | viability change, negative = cytotoxic ([1]; at 92.4 µM (top of the series)) -3.85% and -9.54% | activity change, negative = cytotoxicity ([2]; at 42.5 µM (top of the series)) 8.72% | activity change, negative = cytotoxicity ([2]; at 92.4 µM (top of the series)) -5.26% and 0.307% | activity change, negative = cytotoxicity ([4]; at 35.3 µM (top of the series)) -2.14% | activity change, negative = cytotoxicity ([4]; at 76.8 µM (top of the series)) -16.4% and 1.26% | activity change, negative = cytotoxicity ([6]; at 35.3 µM (top of the series)) -7.91% | activity change, negative = cytotoxicity ([6]; at 76.8 µM (top of the series)) -3.9% and -10.3% | activity change, negative = cytotoxic ([7]; at 35.3 µM (top of the series)) -7.41% | activity change, negative = cytotoxic ([7]; at 76.8 µM (top of the series)) -4.49% and -28.9% | activity change, negative = cytotoxic ([8]; at 35.3 µM (top of the series)) 1.47% | activity change, negative = cytotoxic ([8]; at 76.8 µM (top of the series)) 2.92% and -5.03% | activity change, negative = cytotoxicity ([9]; at 35.3 µM (top of the series)) -11.4% | activity change, negative = cytotoxicity ([9]; at 76.8 µM (top of the series)) -17.5% and -16.7% | viability change, negative = cytotoxic ([10]; at 35.3 µM (top of the series)) -13.7% | viability change, negative = cytotoxic ([10]; at 76.8 µM (top of the series)) -10% and -10.7% | activity change, negative = cytotoxic ([11]; at 35.3 µM (top of the series)) -0.117% | activity change, negative = cytotoxic ([11]; at 76.8 µM (top of the series)) 0.536% and -8.42% | activity change, negative = cytotoxic ([12]; at 35.3 µM (top of the series)) -11.9% | activity change, negative = cytotoxic ([12]; at 76.8 µM (top of the series)) -6.07% and -11.1% | activity change, negative = cytotoxicity ([13]; at 35.3 µM (top of the series)) -11.6% | activity change, negative = cytotoxicity ([13]; at 76.8 µM (top of the series)) -17.3% and -24.3% | activity change, negative = cytotoxicity ([14]; at 35.3 µM (top of the series)) -14.6% | activity change, negative = cytotoxicity ([14]; at 76.8 µM (top of the series)) -21.4% and -13.6% | activity change, negative = cytotoxicity ([15]; at 35.3 µM (top of the series)) 10.6% | activity change, negative = cytotoxicity ([15]; at 76.8 µM (top of the series)) 12.3% and 0.223% | activity change, negative = cytotoxicity ([16]; at 42.5 µM (top of the series)) 0.148% | activity change, negative = cytotoxicity ([16]; at 92.4 µM (top of the series)) -1.65% and -0.699% | viability change, negative = cytotoxic ([17]; at 42.5 µM (top of the series)) 5.51% | viability change, negative = cytotoxic ([17]; at 92.4 µM (top of the series)) -2.26% and 1.89%
101 µM (active) and inactive: Potency [5]
